From publication PMC11582362 come the findings set out here.

Assay [1] addresses full length ADAR1 p110, wild type (FLAG-tagged and HA-tagged copies) (human) (UniProt P55265). Briefly: co-IP; FLAG- and HA-tagged ADAR1 variants co-expressed in HEK293T cells; lysate treated with RNase A; FLAG M2 magnetic beads, 2 h at 4 °C, IP buffer 25 mM Tris-HCl pH 7.4, 150 mM NaCl, 1 mM EDTA, 1% NP-40, 5% glycerol; western blot with anti-HA.
The target of assay [2] is ADAR1-dsRBD3 interface mutant (V747A + D748Q + W768V + C773S), residues 708-801, uncleavable His6-tag (human) (UniProt P55265). Put plainly: SEC-SAXS; BioSEC-3 column, 15 °C, 0.3 mL/min, 20 mM Na-phosphate pH 7.0, 100 mM NaCl, 2 mM 2-mercaptoethanol; His6-tag kept; both purified. On the technique in general: SEC sorts molecules by how far they enter the pores of the column.

Assay [3] shares this target. Put plainly: SEC-MALS; SEC-MALLS, BioSEC-3 column, 25 °C, 0.4 mL/min, 20 mM Na-phosphate pH 7.0, 100 mM NaCl, 2 mM 2-mercaptoethanol; His6-tag kept; both purified.

Results are given in words; binding and its absence hold for the method and conditions named. For part of these data: Binding seen in cells or lysates may run through a third protein. Some entries that bind do so weakly or less than the wild type. Sequences can lack the tags named with a protein.

B1: full length ADAR1 p110, wild type (FLAG-tagged and HA-tagged copies) (enzyme, UniProt P55265-5 1-931)
chain: MAEIKEKICDYLFNVSDSSALNLAKNIGLTKARDINAVLIDMERQGDVYRQGTTPPIWHLTDKKRERMQIKRNTNSVPETAPAAIPETKRNAEFLTCNIPTSNASNNMVTTEKVENGQEPVIKLENRQEARPEPARLKPPVHYNGPSKAGYVDFENGQWATDDIPDDLNSIRAAPGEFRAIMEMPSFYSHGLPRCSPYKKLTECQLKNPISGLLEYAQFASQTCEFNMIEQSGPPHEPRFKFQVVINGREFPPAEAGSKKVAKQDAAMKAMTILLEEAKAKDSGKSEESSHYSTEKESEKTAESQTPTPSATSFFSGKSPVTTLLECMHKLGNSCEFRLLSKEGPAHEPKFQYCVAVGAQTFPSVSAPSKKVAKQMAAEEAMKALHGEATNSMASDNQPEGMISESLDNLESMMPNKVRKIGELVRYLNTNPVGGLLEYARSHGFAAEFKLVDQSGPPHEPKFVYQAKVGGRWFPAVCAHSKKQGKQEAADAALRVLIGENEKAERMGFTEVTPVTGASLRRTMLLLSRSPEAQPKTLPLTGSTFHDQIAMLSHRCFNTLTNSFQPSLLGRKILAAIIMKKDSEDMGVVVSLGTGNRCVKGDSLSLKGETVNDCHAEIISRRGFIRFLYSELMKYNSQTAKDSIFEPAKGGEKLQIKKTVSFHLYISTAPCGDGALFDKSCSDRAMESTESRHYPVFENPKQGKLRTKVENGEGTIPVESSDIVPTWDGIRLGERLRTMSCSDKILRWNVLGLQGALLTHFLQPIYLKSVTLGYLFSQGHLTRAICCRVTRDGSAFEDGLRHPFIVNHPKVGRVSIYDSKRQSGKTKETSVNWCLADGYDLEILDGTRGTVDGPRNELSRVSKKNIFLLFKKLCSFRYRRDLLRLSYGEAKKAARDYETAKNYFKKGLKDMGYGNWISKPQEEKNFYLCPV
Regarding B1, the binding entry in assay [1] is “binds”.

B2: ADAR1-dsRBD3 interface mutant (V747A + D748Q + W768V + C773S), residues 708-801, uncleavable His6-tag (domain or fragment, UniProt P55265 708-801)
chain: MMPNKVRKIGELVRYLNTNPVGGLLEYARSHGFAAEFKLAQQSGPPHEPKFVYQAKVGGRVFPAVSAHSKKQGKQEAADAALRVLIGENEKAER
Regarding B2, the binding result in assay [2] and in assay [3] was “no binding” in each case.
